PubChem BioAssay AID743121 | NCATS | 2013

Purpose: 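Partners whose loss is lethal together with topoisomerase I blockade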 (primary screen)
Cell system: MDA-MB-231 cells, a human breast cancer line
Reagent: single siRNA against human genes, 20 nM siRNA (0.8 pmol per well)
Time to read-out: 120 h (drug added 48 h after transfection, read 72 h later)
Treatment: camptothecin 20 nM (about EC30) for 72 h; vehicle 0.1% DMSO in parallel plates
Detection: 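CellTiter-Glo ATP signal, scaled to control siRNA as percent viability; sensitisation given as log2 of untreated divided by camptothecin-treated viability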
Direction: log2 vehicle/camptothecin viability: higher = stronger sensitisation to camptothecin; viability with camptothecin: higher = more viable cells
Units: viability with camptothecin in % of control
Active means: 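Each gene scored by redundant siRNA activity (RSA) over its individual siRNA ratios; a gene is called active at p < 0.001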
This is a random part of about 26,000 reagents tested. 167 of them (0.63%) were called active. 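Calls are per gene from RSA p-values that are not deposited; an individual active-marked siRNA can sensitise only weakly.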 Unmarked entries are inactive. The numbers tell different reagents against one gene apart. Not all columns of the deposit are shown.

WT1 (WT1 transcription factor) #1 scored log2 vehicle/camptothecin viability -0.0625; viability with camptothecin 92.3.
Against WT1 (WT1 transcription factor) #2 the deposit lists log2 vehicle/camptothecin viability -0.285; viability with camptothecin 69.1.
Depletion of WT1 (WT1 transcription factor) #3 resulted in: log2 vehicle/camptothecin viability 0.141; viability with camptothecin 101.
For WT1 (WT1 transcription factor) #4 the deposit lists log2 vehicle/camptothecin viability 0.0366; viability with camptothecin 54.3.
FRAT2 (FRAT regulator of Wnt signaling pathway 2) #1 gave log2 vehicle/camptothecin viability -0.338; viability with camptothecin 89.
With knock-down of FRAT2 (FRAT regulator of Wnt signaling pathway 2) #2, the record shows log2 vehicle/camptothecin viability -0.336; viability with camptothecin 137.
Against FRAT2 (FRAT regulator of Wnt signaling pathway 2) #3, the entry reads log2 vehicle/camptothecin viability 0.115; viability with camptothecin 49.2.
Knock-down of ACADVL (acyl-CoA dehydrogenase very long chain) #1 gave: log2 vehicle/camptothecin viability 0.765; viability with camptothecin 31.1.
Silencing of ACADVL (acyl-CoA dehydrogenase very long chain) #2 gave: log2 vehicle/camptothecin viability 0.376; viability with camptothecin 66.5.
Against ACADVL (acyl-CoA dehydrogenase very long chain) #3, the entry reads log2 vehicle/camptothecin viability -0.066; viability with camptothecin 97.4.
Against ACADVL (acyl-CoA dehydrogenase very long chain) #4 the deposit lists log2 vehicle/camptothecin viability -0.339; viability with camptothecin 112.
For GPR160 (G protein-coupled receptor 160) #1, the entry reads log2 vehicle/camptothecin viability -0.01; viability with camptothecin 82.8.
Silencing of GPR160 (G protein-coupled receptor 160) #2 resulted in: log2 vehicle/camptothecin viability 0.114; viability with camptothecin 61.
After knock-down of GPR160 (G protein-coupled receptor 160) #3, the screen gave log2 vehicle/camptothecin viability -0.0895; viability with camptothecin 86.4.
Silencing of OR2H1 (olfactory receptor family 2 subfamily H member 1) #1 gave: log2 vehicle/camptothecin viability -0.149; viability with camptothecin 83.1.
Depletion of OR2H1 (olfactory receptor family 2 subfamily H member 1) #2 resulted in: log2 vehicle/camptothecin viability 0.322; viability with camptothecin 54.7.
Depletion of OR2H1 (olfactory receptor family 2 subfamily H member 1) #3 came out at: log2 vehicle/camptothecin viability 0.0347; viability with camptothecin 98.8.
Knock-down of OR2H1 (olfactory receptor family 2 subfamily H member 1) #4 came out at: log2 vehicle/camptothecin viability 0.181; viability with camptothecin 68.9.
CTNNA2 (catenin alpha 2) #1 gave log2 vehicle/camptothecin viability -0.0141; viability with camptothecin 66.9.
CTNNA2 (catenin alpha 2) #2 scored log2 vehicle/camptothecin viability -0.422; viability with camptothecin 70.9.
Against CTNNA2 (catenin alpha 2) #3, the entry reads log2 vehicle/camptothecin viability -0.404; viability with camptothecin 84.8.
CTNNA2 (catenin alpha 2) #4 gave log2 vehicle/camptothecin viability -0.339; viability with camptothecin 57.1.
TOR1A (torsin family 1 member A) #1 gave log2 vehicle/camptothecin viability -0.121; viability with camptothecin 110.
After knock-down of TOR1A (torsin family 1 member A) #2 the results were log2 vehicle/camptothecin viability -0.0627; viability with camptothecin 80.6.
Knock-down of TOR1A (torsin family 1 member A) #3 gave: log2 vehicle/camptothecin viability -0.000107; viability with camptothecin 57.4.
TOR1A (torsin family 1 member A) #4 gave log2 vehicle/camptothecin viability -0.00161; viability with camptothecin 93.3.

Limited to “viability with camptothecin”, for 2 of the entries above:
ACADVL (acyl-CoA dehydrogenase very long chain) #1: 31.1
ACADVL (acyl-CoA dehydrogenase very long chain) #2: 66.5
